Protein sequences, listed by entry. Tags and fused reporters are not part of them. Lines headed by an entry give the natural chain unless they say otherwise; changes in a name come on top.
UniProt A0QWS8: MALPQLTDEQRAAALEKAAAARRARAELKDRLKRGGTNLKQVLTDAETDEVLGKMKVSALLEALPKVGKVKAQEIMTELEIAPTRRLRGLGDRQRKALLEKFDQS

According to paper PMC10028186:

How the values were obtained:
[1] = target: Strep-msIHF (mycobacterial integration host factor) (Mycobacterium smegmatis mc2 155) (UniProt A0QWS8); experiment: BLI; details: BLI: PBS with 50 mM Tris-HCl pH 7.5, 150 mM NaCl, 0.1 mg/ml BSA, 0.05% Tween-20, 30 C; recombinant protein; residues 1-105; protein details: N-terminal Strep tag (pET28N-Strep); probe letters rebuilt from the primers and the genome; part of a longer molecule
[2] = target: Strep-msIHF (mycobacterial integration host factor) (Mycobacterium smegmatis mc2 155) (UniProt A0QWS8); experiment: EMSA; details: 10 mM Mg acetate, 25 ng poly(dI-dC), EMSA: 50 mM Tris-HCl pH 8, 150 mM NaCl, 0.02% Tween-20, 5% glycerol, 1 mg/ml BSA, 50 fmol DNA in 20 ul, 20 C, recombinant protein, residues 1-105, protein details: N-terminal Strep tag (pET28N-Strep), probe letters rebuilt from the primers and the genome, part of a longer molecule

Sequence | Kd [1] [nM] | binding result [2]
TTGCCCAGCATCCTCGGTGTGTCGCGGTGTGAGTGGTGTGTGGAGAGCGGTTGATGAACTCCGCCGGCACTGTGGATCGTCGCGCAGGTGTGGAGAGATTCCGTAGTCATCCTGTGGTTTGCGCGCAGGTTCTGCACATCGGTATCCACAGCCGCCGAGCGTGACGGCAGGCACGCGTGTGACAGAAGTTGCTCACAAAAAATTTCGGTCAGGCGTCGTCGAAACCGGGTCGGAACGGGTCCGTAGACGACGGATGCCCGGGGGACTCCCGGGGCATCCGTGTGGGCTGAGTCTCCGAGC (double strand) [oriC fragment] | 270 | binds
CTGCTGTGCTGTTCGGCTGCACGTAGGCGGCGAGCATCTCCAGCGCGAGCTGTGTCGGCGAGGCTTTCCACTGGTTGGCGGCCAGGACGTTGACCGGGTGCGCGGCCTCGGCCAGTGCTGCGCCGGCGGGGTCGCGGACGACGACGCGGATGTCGGCGGGGCGCTGCTCGTCGACGGTGAGCATGGAGGCGGGGTCGAGTTTGAGGTCGACGTCGCGCAGTGTGGTCGGCCGGCCGGGCGACAGGTCGGCGTGGACTTCGCGCGGACCGCCGTGGGAGCCTTCGGCAC (double strand) [high-GC fragment] | 270 | binds
GCAACGAAAAAGGGACCGCACGTGGCGGTCCCTACCGAGCGGGCGACGGGAATCGAACCCGCGTAGCTAGTTTGGAAGACTAGGGCTCTACCATTGAGCTACGCCCGCATGTCAGCACCAGCACTGTACCGGGGAGCTGAAACCAAATCCAATTAAGGGTCTCGTGTCGTGAGCACGTAGTATCTCGCGTGGCCCTTTCGCGGTTTCTCGGCCTGCGGATGGACCACCACGGGGTGTAGCGCAGCTTGGTAGCGCATCCGCTTTGGGAGCGGAAGGCCGCAGGTTCAAA (double strand) [attB fragment] | 250 | binds

Construct, isoform or probe ends are uncertain for at least one entry.
